PubChem BioAssay AID504795, Drosophila RNAi Screening Center | 2011

Test: 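Genes required for normal axon extension and glial cell shape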 (primary screen)
System: primary Drosophila neurons and glia
Reagents: long dsRNA against Drosophila genes, 250 ng dsRNA per well
Timing: one week
Measured: 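GFP-labelled neurons and glia imaged live by automated microscope one week after 250 ng dsRNA per well; morphology scored by eye as descriptive phenotype terms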
The reagents shown are a selection, not the whole library. 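Every listed dsRNA shows some phenotype; how reagents were selected for listing is not stated.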 Names joined by + are all predicted targets of the reagent. Reagent sequences are not shown.

What did the screen give for Ccdc58 + CG34116 [DRSC10105]?
phenotype seen, replicate 1: fewer cells

With CG11854 [DRSC14409], how do the results read?
phenotype seen, replicate 1: sheet-like cell extensions

For CG4829 [DRSC19920], how do the results read?
phenotype seen, replicate 1: abnormal cell clusters

Which result is listed for Obp19b [DRSC20536]?
phenotype seen, replicate 1: sheet-like cell extensions

With CG32833 [DRSC04596], how do the results read?
phenotype seen, replicate 1: abnormal cell clusters

How did the screen score Cadps [DRSC21057]?
phenotype seen, replicate 1: sheet-like cell extensions

Which result is listed for opm [DRSC20141]?
phenotype seen, replicate 1: axon bundles split apart

What is on record for gogo [DRSC10070]?
phenotype seen, replicate 1: reduced axon outgrowth; phenotype seen, replicate 2: abnormal cell clusters

For gogo [DRSC10071], what does the deposit list?
phenotype seen, replicate 1: abnormal cell clusters

For CG18538 [DRSC06765], what was measured?
phenotype seen, replicate 1: abnormal cell clusters

With CG8613 [DRSC07222], what does the deposit list?
phenotype seen, replicate 1: axon bundles split apart

Which result is listed for CG4991 [DRSC19928]?
phenotype seen, replicate 1: more neurite growth

With CG14545 [DRSC14889], what was measured?
phenotype seen, replicate 1: too many neurite branches

Which result is listed for fd59A [DRSC04685]?
phenotype seen, replicate 1: too many neurite branches

With mas [DRSC08720], how do the results read?
phenotype seen, replicate 1: beaded; swollen axons

For hdm [DRSC18013], what was measured?
phenotype seen, replicate 1: abnormal cell clusters

What is on record for prg [DRSC03324]?
phenotype seen, replicate 1: axon bundles split apart

What did the screen give for Naa15-16 [DRSC22846]?
phenotype seen, replicate 1: weaker green signal

What did the screen give for CG6900 (retired record) [DRSC20018]?
phenotype seen, replicate 1: axon bundles split apart

What is on record for CG6709 + Hez [DRSC10698]?
phenotype seen, replicate 1: cell fragments present

Copied from the list.
Value of CG32833 [DRSC04596] in “phenotype seen, replicate 1”: abnormal cell clusters
For “phenotype seen, replicate 1”, CG4991 [DRSC19928] is entered as more neurite growth
gogo [DRSC10071], phenotype seen, replicate 1 = abnormal cell clusters
Value for opm [DRSC20141] in “phenotype seen, replicate 1”: axon bundles split apart

Additional results:
For CG6013 [DRSC15947], what does the deposit list?
phenotype seen, replicate 1: reduced axon outgrowth

What is on record for Him [DRSC19638]?
phenotype seen, replicate 1: fewer cells

What did the screen give for upd3 [DRSC19968]?
phenotype seen, replicate 1: abnormal cell clusters

Which result is listed for CG1265 [DRSC08288]?
phenotype seen, replicate 1: reduced axon outgrowth

How did the screen score Orp8 [DRSC15110]?
phenotype seen, replicate 1: beaded; swollen axons

Which result is listed for CG12817 [DRSC14555]?
phenotype seen, replicate 1: sheet-like cell extensions

For otk [DRSC07658], how do the results read?
phenotype seen, replicate 1: reduced axon outgrowth

How did the screen score Cpr30B [DRSC02728]?
phenotype seen, replicate 1: too many neurite branches

What is on record for SF2 [DRSC16845]?
phenotype seen, replicate 1: too many neurite branches

For pll [DRSC17026], what was measured?
phenotype seen, replicate 1: cell fragments present

With Dh31-R [DRSC06647], what was measured?
phenotype seen, replicate 1: too many neurite branches

With Dh31-R [DRSC06669], what does the deposit list?
phenotype seen, replicate 1: fewer cells

With cni [DRSC03512], how do the results read?
phenotype seen, replicate 1: cell fragments present

Which result is listed for Ptp99A [DRSC14319]?
phenotype seen, replicate 1: sheet-like cell extensions

How did the screen score Ptp99A [DRSC14320]?
phenotype seen, replicate 1: too many neurite branches

What is on record for Adh + Adhr [DRSC01862]?
phenotype seen, replicate 1: sheet-like cell extensions

Which result is listed for CG43867 [DRSC17836]?
phenotype seen, replicate 1: reduced axon outgrowth

How did the screen score CG15126 [DRSC06548]?
phenotype seen, replicate 1: axon bundles split apart

With Yif1 [DRSC15817], how do the results read?
phenotype seen, replicate 1: reduced axon outgrowth

Which result is listed for Pde8 [DRSC04503]?
phenotype seen, replicate 1: sheet-like cell extensions

How did the screen score Bka [DRSC02757]?
phenotype seen, replicate 1: too many neurite branches

With Vha16-3 [DRSC10872], how do the results read?
phenotype seen, replicate 1: sheet-like cell extensions

What did the screen give for sala [DRSC03605]?
phenotype seen, replicate 1: axon bundles split apart

For scb [DRSC05542], what was measured?
phenotype seen, replicate 1: axon bundles split apart

Which result is listed for scb [DRSC07678]?
phenotype seen, replicate 1: too many neurite branches

What is on record for Hecw [DRSC18261]?
phenotype seen, replicate 1: too many neurite branches

For Dus2 [DRSC19591], what does the deposit list?
phenotype seen, replicate 1: axon bundles split apart
